Source: PMC11965915
Changes are numbered by the printed parent chain. These are yes or no findings as the source states them, for the method shown. Binding seen in cells or lysates may run through a third protein. Some entries that bind do so weakly or less than the wild type. Blank lines part the entries; values can stand above or below the substance they belong to.

Amino acid sequences for entries named in this document (tags omitted).
UniProt P13693: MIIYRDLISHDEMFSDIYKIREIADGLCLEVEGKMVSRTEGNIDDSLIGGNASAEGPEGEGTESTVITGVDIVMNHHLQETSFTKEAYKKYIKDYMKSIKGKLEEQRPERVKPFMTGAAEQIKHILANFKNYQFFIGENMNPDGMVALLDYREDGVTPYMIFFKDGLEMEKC
UniProt P23242: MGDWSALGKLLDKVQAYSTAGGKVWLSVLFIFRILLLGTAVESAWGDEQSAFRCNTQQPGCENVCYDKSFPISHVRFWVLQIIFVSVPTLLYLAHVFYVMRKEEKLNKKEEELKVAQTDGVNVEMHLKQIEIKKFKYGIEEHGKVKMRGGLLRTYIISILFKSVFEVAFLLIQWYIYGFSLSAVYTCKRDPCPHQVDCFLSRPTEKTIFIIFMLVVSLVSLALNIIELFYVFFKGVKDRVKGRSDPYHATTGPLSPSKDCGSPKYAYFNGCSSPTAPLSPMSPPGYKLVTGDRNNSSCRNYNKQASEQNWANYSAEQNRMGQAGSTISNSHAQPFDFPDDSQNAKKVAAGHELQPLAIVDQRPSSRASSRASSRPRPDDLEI
UniProt P08050: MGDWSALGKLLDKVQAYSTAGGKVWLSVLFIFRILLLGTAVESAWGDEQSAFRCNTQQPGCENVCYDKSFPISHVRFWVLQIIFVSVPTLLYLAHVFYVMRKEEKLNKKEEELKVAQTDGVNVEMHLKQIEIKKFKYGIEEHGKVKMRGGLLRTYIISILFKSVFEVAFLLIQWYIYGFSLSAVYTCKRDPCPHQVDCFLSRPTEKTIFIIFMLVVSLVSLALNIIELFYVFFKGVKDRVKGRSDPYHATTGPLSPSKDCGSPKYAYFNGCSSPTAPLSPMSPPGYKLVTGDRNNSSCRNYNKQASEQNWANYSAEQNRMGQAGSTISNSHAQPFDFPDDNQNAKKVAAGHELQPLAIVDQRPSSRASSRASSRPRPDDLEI
UniProt P17302: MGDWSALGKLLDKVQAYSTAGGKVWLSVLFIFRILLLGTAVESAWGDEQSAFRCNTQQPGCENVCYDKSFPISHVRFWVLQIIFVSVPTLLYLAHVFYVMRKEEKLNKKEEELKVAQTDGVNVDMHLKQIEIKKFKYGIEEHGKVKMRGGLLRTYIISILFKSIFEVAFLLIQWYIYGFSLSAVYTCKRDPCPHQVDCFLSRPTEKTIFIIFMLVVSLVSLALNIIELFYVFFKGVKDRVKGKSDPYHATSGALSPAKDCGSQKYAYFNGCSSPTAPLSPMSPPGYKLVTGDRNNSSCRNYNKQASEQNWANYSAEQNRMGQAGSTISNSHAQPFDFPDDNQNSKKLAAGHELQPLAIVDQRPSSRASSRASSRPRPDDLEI

Columns and labels:
[1] = target: T1, Translationally controlled tumor protein (mouse heart) (mouse (endogenous in mouse heart left ventricle)) (UniProt P63028); assay: co-IP; mouse left ventricle lysate in IP Lysis Buffer (50 mM Tris-HCl pH 7.5, 150 mM NaCl, 5 mM EDTA, 1% NP-40); anti-TCTP antibody (PM107) overnight at 4°C, Dynabeads Protein G 1 h at 4°C; western blot with anti-Cx43 antibody
T1 sequence: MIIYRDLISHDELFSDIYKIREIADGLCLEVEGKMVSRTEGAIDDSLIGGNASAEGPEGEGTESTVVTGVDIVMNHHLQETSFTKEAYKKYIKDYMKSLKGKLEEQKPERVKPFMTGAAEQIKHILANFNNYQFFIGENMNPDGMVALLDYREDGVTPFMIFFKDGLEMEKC

[2] = target: T2, Translationally controlled tumor protein (neonatal rat ventricular myocytes) (rat (endogenous in NRVMs)) (UniProt P63029); assay: proximity ligation; Duolink PLA in fixed NRVMs, endogenous proteins; signal when less than 40 nm apart; cells transfected with control siRNA or TCTP siRNA
T2 sequence: T1 sequence

[3] = target: T3, Translationally controlled tumor protein (human iPSC-derived cardiomyocytes) (human (endogenous in iPSC-CMs)) (UniProt P13693); assay: proximity ligation; PLA in human iPSC-CMs, endogenous proteins; signal when less than 40 nm apart; negative control lacks the anti-Cx43 antibody
T3 sequence: T1 sequence with L13M, A42N, V67I, L99I, K107R, N130K, F159Y

binding [1]: binds
Substance: Connexin 43 (mouse heart) (from UniProt P23242 1-382)

binding [2]: binds
Substance: Connexin 43 (neonatal rat ventricular myocytes) (from UniProt P08050 1-382)

binding [3]: binds
Substance: Connexin 43 (human iPSC-derived cardiomyocytes) (from UniProt P17302 1-382)
